Values from PubChem BioAssay AID1259308 (NCATS, 2017).

- Assay: 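Knock-downs that increase output of a recombinant reporter protein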 (primary screen)
- Cell system: human HEK293 embryonic kidney cells stably expressing firefly luciferase (HEK-CMV-Luc2-Hygro)
- Reagent: single siRNA against human genes, 0.8 pmol siRNA per well
- Duration: 72 h
- Measured: 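Reporter luminescence and viable-cell signal on separate replicate plates, given as percent of non-targeting control and median/MAD z-scores, plus per-cell luciferase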
- Direction: total luciferase, z-score and total luciferase, % of control: higher = more reporter protein produced; luciferase per cell, z-score: higher = more reporter output per viable cell; viable cells, % of control: higher = more viable cells
- Active means: 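Active when the median/MAD z-score for overall luciferase is greater than 3; a gene was taken forward for validation with new siRNAs if at least two of its three siRNAs passed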
- Meaning of the calls: active = raised luciferase; inactive = no rise
In all, the deposit lists about 59,000 reagents; this is a random part of them. Over the whole deposit, about 1,510 (2.6%) are marked active. 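Calls use total luciferase alone and ignore viability, so some active siRNAs may act by altering cell number.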 A number with no mark means an inactive call.

no.	target gene	PubChem SID	total luciferase, z-score	total luciferase, % of control	luciferase per cell, z-score	viable cells, % of control
1	CENPP	SID160767318	-0.297	76	-0.0406	85.8
2	CENPP	SID160767319	0.275	87.4	0.494	85.7
3	CENPP	SID160767320	1.7	116	1.7	82.7
4	ATG9A	SID160748564	-0.62	69.5	-0.0229	78.2
5	ATG9A	SID160748565	-0.919	63.6	-1.02	93
6	ATG9A	SID160748566	4.6 (active)	173	3.65	74.2
7	ASPRV1	SID160759115	0.476	91.4	2.51	52.8
8	ASPRV1	SID160759116	1.15	105	0.911	92.2
9	ASPRV1	SID160759118	1.77	117	1.17	96.2
10	CDS2	SID160720751	0.116	84.2	-0.221	99.7
11	CDS2	SID160720752	1.23	106	1.58	78.4
12	CDS2	SID160732095	-0.1	79.9	-0.212	94.4
13	LOC646388	SID160733982	-0.883	64.3	-1.13	96.8
14	LOC646388	SID160769846	-0.544	71.1	-1.06	105
15	LOC646388	SID160769847	-0.676	68.4	-0.584	89.2
16	OBI1	SID160748964	-0.596	70	-0.71	94.3
17	OBI1	SID160748965	0.457	91	0.624	86.3
18	OBI1	SID160748966	0.55	92.8	0.308	95.6
19	SYNGR1	SID160721589	-1.2	58	-0.924	82.7
20	SYNGR1	SID160724216	0.653	94.9	0.589	90.8
21	SYNGR1	SID160724217	0.816	98.1	0.307	101
22	FHL5	SID160722260	-0.624	69.5	-0.78	95.4
23	FHL5	SID160722262	-0.348	75	-0.621	98.6
24	FHL5	SID160722263	1.27	107	1.12	89.2
25	CCNA2	SID160737652	-1.23	57.4	-1.29	90.2
26	CCNA2	SID160737662	1.66	115	1.82	79.6
27	CCNA2	SID160737673	-1.1	60	-0.482	76.2
28	DRC3	SID160751129	-0.0608	80.7	-0.349	98.8
29	DRC3	SID160751130	0.372	89.3	0.397	89.9
30	DRC3	SID160751131	-1.43	53.5	-0.359	65.7

6 consecutive records from above, quoted:
no.	target gene	PubChem SID	total luciferase, z-score	total luciferase, % of control	luciferase per cell, z-score	viable cells, % of control
16	OBI1	SID160748964	-0.596	70	-0.71	94.3
17	OBI1	SID160748965	0.457	91	0.624	86.3
18	OBI1	SID160748966	0.55	92.8	0.308	95.6
19	SYNGR1	SID160721589	-1.2	58	-0.924	82.7
20	SYNGR1	SID160724216	0.653	94.9	0.589	90.8
21	SYNGR1	SID160724217	0.816	98.1	0.307	101

The list goes on.
no.	target gene	PubChem SID	total luciferase, z-score	total luciferase, % of control	luciferase per cell, z-score	viable cells, % of control
31	PPP3CA	SID160714825	-0.399	73.9	-0.654	98.1
32	PPP3CA	SID160714826	-0.276	76.4	-0.769	105
33	PPP3CA	SID160714827	0.266	87.2	-0.301	105
34	ANKRD36BP2	SID160734749	-0.482	72.3	-0.932	103
35	ANKRD36BP2	SID160773716	-0.849	65	-0.739	88.2
36	ANKRD36BP2	SID160773717	-0.688	68.2	0.238	71.6
37	HMGCS1	SID160775062	-0.134	79.2	-0.863	111
38	HMGCS1	SID160775063	-1.37	54.7	-1.58	92.8
39	HMGCS1	SID160775064	-1.13	59.5	0.621	56.4
40	SLC25A28	SID160751066	-1.82	45.7	-0.302	55.3
41	SLC25A28	SID160751067	-0.737	67.2	-0.45	84.6
42	SLC25A28	SID160751068	-1.34	55.2	-1.16	83.7
43	GAMT	SID160769173	0.831	98.4	0.469	97.2
44	GAMT	SID160769183	2.02	122	1.51	91.6
45	GAMT	SID160769190	0.413	90.1	0.453	89.3
46	PSRC1	SID160752652	-0.193	78	-0.324	95
47	PSRC1	SID160752653	-0.529	71.4	-0.0739	81.3
48	PSRC1	SID160752654	1.06	103	1.02	88
49	LRTM3	SID160755947	-0.624	69.5	0.468	68.6
50	LRTM3	SID160755949	0.39	89.6	-0.0802	102
51	LRTM3	SID160755950	-0.576	70.4	-0.274	84.6
52	LRTM3	SID160768956	0.653	94.9	1.12	79
53	LRTM3	SID160768957	2.09	124	1.83	85.1
54	LRTM3	SID160768958	0.79	97.6	0.133	105
55	TEK	SID160717910	-0.985	62.3	-0.735	84.5
56	TEK	SID160731823	-0.329	75.4	-0.718	102
57	TEK	SID160731824	0.56	93	-0.0517	105
